Measured values published in PMC11304257.
Results are given in words; binding and its absence hold for the method and conditions named. Binding seen in cells or lysates may run through a third protein. Some results given as binding are weak or reduced against the parent protein; the word gives no strength. Tags and fused reporters may be left off the sequences shown.

Sequences of proteins named here, by UniProt entry; tags and fusion partners are left off.
UniProt P12956: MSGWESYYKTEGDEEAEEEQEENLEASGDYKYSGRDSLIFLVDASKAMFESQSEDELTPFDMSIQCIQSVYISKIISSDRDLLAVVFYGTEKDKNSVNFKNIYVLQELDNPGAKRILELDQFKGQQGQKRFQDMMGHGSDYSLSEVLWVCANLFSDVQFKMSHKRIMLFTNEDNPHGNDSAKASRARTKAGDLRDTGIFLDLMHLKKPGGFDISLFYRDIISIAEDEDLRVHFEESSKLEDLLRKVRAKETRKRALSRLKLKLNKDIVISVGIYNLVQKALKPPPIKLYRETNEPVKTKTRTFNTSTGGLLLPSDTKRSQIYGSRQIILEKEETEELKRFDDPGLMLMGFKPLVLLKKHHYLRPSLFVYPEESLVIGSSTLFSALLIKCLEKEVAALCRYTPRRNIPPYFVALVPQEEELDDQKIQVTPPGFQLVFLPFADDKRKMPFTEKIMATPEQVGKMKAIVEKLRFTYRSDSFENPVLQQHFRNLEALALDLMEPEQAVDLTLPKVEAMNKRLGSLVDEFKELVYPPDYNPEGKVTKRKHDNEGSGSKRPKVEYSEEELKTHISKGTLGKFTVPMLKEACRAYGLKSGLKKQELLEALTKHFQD
UniProt P13010: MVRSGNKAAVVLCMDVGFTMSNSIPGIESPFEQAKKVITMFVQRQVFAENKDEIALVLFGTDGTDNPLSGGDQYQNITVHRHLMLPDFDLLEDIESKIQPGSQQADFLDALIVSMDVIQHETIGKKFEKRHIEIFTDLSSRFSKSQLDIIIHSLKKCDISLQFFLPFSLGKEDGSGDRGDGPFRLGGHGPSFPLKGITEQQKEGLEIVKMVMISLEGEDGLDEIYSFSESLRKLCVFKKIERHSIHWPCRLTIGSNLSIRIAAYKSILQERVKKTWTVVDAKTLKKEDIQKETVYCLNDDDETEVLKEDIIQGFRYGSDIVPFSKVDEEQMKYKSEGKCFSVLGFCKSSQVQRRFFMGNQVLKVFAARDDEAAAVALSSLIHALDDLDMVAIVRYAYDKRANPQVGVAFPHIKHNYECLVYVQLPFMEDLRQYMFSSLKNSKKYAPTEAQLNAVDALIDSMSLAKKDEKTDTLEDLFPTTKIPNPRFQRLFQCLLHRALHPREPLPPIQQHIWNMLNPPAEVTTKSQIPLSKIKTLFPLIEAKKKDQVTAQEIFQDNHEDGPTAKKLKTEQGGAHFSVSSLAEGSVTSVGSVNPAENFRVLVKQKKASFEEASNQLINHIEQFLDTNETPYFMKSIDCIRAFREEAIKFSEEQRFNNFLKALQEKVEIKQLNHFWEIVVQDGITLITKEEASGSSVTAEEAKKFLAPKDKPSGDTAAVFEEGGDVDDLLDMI
UniProt Q9H814: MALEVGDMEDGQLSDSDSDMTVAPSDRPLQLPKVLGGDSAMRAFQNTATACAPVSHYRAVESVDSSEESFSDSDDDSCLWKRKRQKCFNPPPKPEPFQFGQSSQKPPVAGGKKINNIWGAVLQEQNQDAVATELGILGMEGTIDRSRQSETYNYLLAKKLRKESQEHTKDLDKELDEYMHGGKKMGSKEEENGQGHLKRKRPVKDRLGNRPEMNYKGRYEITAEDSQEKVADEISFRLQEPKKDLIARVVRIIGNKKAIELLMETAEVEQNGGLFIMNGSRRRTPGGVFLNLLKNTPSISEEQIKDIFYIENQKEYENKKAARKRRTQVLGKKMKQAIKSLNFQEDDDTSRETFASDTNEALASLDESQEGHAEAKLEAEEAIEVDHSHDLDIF

Key:
[1] = target: T1, Flag-TRIM24 wild type (tripartite motif containing 24) (human) (UniProt O15164); assay: co-IP; lysates of NHA/HRas^V12 cells expressing TRIM24 WT, deletion or point mutants; IP lysis buffer (20 mM Tris-HCl pH 7.5, 150 mM NaCl, 1 mM EDTA, 1% Triton X-100), 4 °C, four washes, Western blot; endogenous DNA-PK complex; some panels after NU7441 (4 µM, 24 h), Dabrafenib (40 µM, 24 h), U3 snoRNA knock-down or PHAX knock-down
T1 sequence: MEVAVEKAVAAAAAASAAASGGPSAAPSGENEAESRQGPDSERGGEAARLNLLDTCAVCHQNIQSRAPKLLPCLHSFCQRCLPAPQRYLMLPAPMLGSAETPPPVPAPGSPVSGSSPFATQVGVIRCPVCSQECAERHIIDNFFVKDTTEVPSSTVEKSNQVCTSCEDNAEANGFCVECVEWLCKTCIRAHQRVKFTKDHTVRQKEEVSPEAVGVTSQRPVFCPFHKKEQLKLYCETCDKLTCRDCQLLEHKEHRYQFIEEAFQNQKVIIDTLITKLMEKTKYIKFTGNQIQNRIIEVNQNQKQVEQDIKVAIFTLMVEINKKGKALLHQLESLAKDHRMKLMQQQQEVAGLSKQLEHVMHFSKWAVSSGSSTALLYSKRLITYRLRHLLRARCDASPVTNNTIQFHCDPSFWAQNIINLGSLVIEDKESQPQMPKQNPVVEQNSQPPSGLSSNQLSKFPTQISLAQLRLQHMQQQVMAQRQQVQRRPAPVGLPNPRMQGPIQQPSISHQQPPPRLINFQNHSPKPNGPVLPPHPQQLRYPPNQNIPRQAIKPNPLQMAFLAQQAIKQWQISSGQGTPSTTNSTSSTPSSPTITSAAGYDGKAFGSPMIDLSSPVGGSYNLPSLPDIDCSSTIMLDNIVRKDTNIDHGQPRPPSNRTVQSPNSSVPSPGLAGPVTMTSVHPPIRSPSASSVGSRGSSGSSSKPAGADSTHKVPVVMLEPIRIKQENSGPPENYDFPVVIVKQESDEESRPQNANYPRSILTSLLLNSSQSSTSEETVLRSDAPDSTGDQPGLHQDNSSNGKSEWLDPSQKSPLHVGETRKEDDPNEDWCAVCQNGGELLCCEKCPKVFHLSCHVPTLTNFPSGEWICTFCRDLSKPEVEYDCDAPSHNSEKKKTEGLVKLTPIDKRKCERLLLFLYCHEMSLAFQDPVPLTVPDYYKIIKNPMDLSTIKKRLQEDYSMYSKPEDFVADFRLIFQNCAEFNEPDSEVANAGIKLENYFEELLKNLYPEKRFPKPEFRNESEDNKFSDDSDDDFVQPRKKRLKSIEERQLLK

[2] = target: T1, Flag-TRIM24 wild type (tripartite motif containing 24) (human); assay: condition: only in NHA cells lacking the HRas^V12 mutation; co-IP; NHA cells without HRas^V12, co-transfected with TRIM24, Ku70 and Ku80 constructs; lysate, Western blot
[3] = target: T1, Flag-TRIM24 wild type (tripartite motif containing 24) (human); assay: co-IP; HEK293T cells without HRas^V12 (Figure S7A,B); lysate
[4] = target: T1, Flag-TRIM24 wild type (tripartite motif containing 24) (human); assay: co-IP; HEK293T cells with HRas^V12 (Figure S7A,B); lysate
[5] = target: T1, Flag-TRIM24 wild type (tripartite motif containing 24) (human); assay: co-IP; NHA cells with HRas^V12, co-transfected with TRIM24, Ku70 and Ku80 constructs; lysate, Western blot
[6] = target: T1, Flag-TRIM24 wild type (tripartite motif containing 24) (human); assay: co-IP; NHA/HRas^V12 cells co-transfected with TRIM24 and PHAX constructs; lysate, Western blot
[7] = target: T1, Flag-TRIM24 wild type (tripartite motif containing 24) (human); assay: co-IP; NHA/TRIM24 cells with or without HRas^V12 overexpression; lysate, Western blot

| Substance | binding [1] | binding [2] | binding [4] | binding [5] | binding [3] | other results |
| --- | --- | --- | --- | --- | --- | --- |
| Ku70 (endogenous) (from UniProt P12956 1-609) | binds |  |  |  |  |  |
| Ku80 construct (pEGFP-C1-Flag-Ku80) (from UniProt P13010 1-732) |  | no binding | binds | binds | no binding (condition: in HEK293T cells without HRas^V12) |  |
| Phosphorylated adaptor for RNA export (PHAX) (from UniProt Q9H814 1-394) |  |  |  |  |  | binding [6]: binds; binding [7]: binds |

More lines, main results first:

| binding [1] | binding [2] | binding [4] | binding [5] | Substance | binding [3] | other results |
| --- | --- | --- | --- | --- | --- | --- |
|  | no binding | binds | binds | Ku70 construct (pEGFP-C1-Flag-Ku70) (from UniProt P12956 1-609) | no binding (condition: in HEK293T cells without HRas^V12) |  |
| binds |  |  |  | Ku80 (endogenous) (from UniProt P13010 1-732) |  |  |
